Data as given in patent US8278473B2, “Alpha, beta-unsaturated imidate compound and pesticidal composition containing the same” (Sumitomo Chemical Company, Limited, priority 2007, dated 2012).
Some of these results come from one statement about several compounds together. For some assays here: At least one read-out could not be matched to a standard name with certainty. Some ranges recur; such a range may be that of the whole group of compounds.

How the values were obtained:
Assay type in all cases: in vivo
Culex pipiens pallens = test: Test Example 7: Culex pipiens pallens larvae in treated water; settings: active ingredient concentration 3.5 ppm in water; last-instar larvae; after 1 day
Spodoptera litura = test: Test Example 1: Spodoptera litura, artificial diet/filter paper test; settings: 500 ppm test solution, 2 mL; fourth-instar larvae; after 6 days
Plutella xylostella = test: Test Example 9: Plutella xylostella, spray on cabbage; settings: 500 ppm test solution, 20 mL sprayed on cabbage; second-instar larvae; 25° C.; after 5 days
Adoxophyes orana = test: Test Example 2: Adoxophyes orana, artificial diet/filter paper test; settings: 500 ppm test solution, 1 mL; first-instar larvae; after 7 days
Musca domestica = test: Test Example 5: Musca domestica, filter paper with sucrose bait; settings: 500 ppm test solution, 0.7 ml on filter paper; female imagoes; after 24 hours
Aphis gossypii = test: Test Example 3: Aphis gossypii, spray on cucumber leaves; settings: 500 ppm test solution, 20 mL sprayed on cucumber; imagoes and larvae; after 6 days

| Structure (SMILES) | index in terms of death rate (Culex pipiens pallens) | index in terms of death rate (Spodoptera litura) | index in terms of death rate (Plutella xylostella) | index in terms of death rate (Adoxophyes orana) | index in terms of death rate (Musca domestica) | index in terms of survival rate (Aphis gossypii) |
| --- | --- | --- | --- | --- | --- | --- |
| C/C(=C\Oc1ccccc1)C(=Nc1cccnc1)Oc1ccccc1 [Compound 172, phenyl 2-methyl-3-phenoxy-N-(3-pyridyl)-2-propenimidate] | 4 (4: 91 to 100%) |  |  |  |  |  |
| CC(=COc1cccc(C)c1)C(=Nc1ccccc1)Oc1cccc(Oc2ccccc2)c1 [Compound 181, 3-phenoxyphenyl 2-methyl-3-(3-methylphenyloxy)-N-phenyl-2-propenimidate] | 4 (4: 91 to 100%) | 3 (3: 80 to 99%) | 3 (3: 80 to 99%) | 3 (3: 80 to 99%) |  |  |
| CC(=COc1ccc(C)cc1)C(=Nc1ccccc1)Oc1ccc(Cl)cc1 [Compound 202, 4-chlorophenyl 2-methyl-3-(4-methylphenyloxy)-N-phenyl-2-propenimidate] | 4 (4: 91 to 100%) | 3 (3: 80 to 99%) | 3 (3: 80 to 99%) | 3 (3: 80 to 99%) | 3 (3: 70 to 99%) |  |
| CC(=COc1ccc(C)cc1)C(=Nc1ccccc1)Oc1ccc2ccccc2c1 [Compound 207, 2-naphthyl 2-methyl-3-(4-methylphenyloxy)-N-phenyl-2-propenimidate] | 4 (4: 91 to 100%) | 3 (3: 80 to 99%) | 3 (3: 80 to 99%) | 3 (3: 80 to 99%) | 3 (3: 70 to 99%) | 3 (3: 1 to 10%) |
| CC(=COc1ccc(C)cc1)C(=Nc1ccc(C)cc1)Oc1ccccc1Cl [Compound 216, 2-chlorophenyl 2-methyl-N-(4-methylphenyl)-3-(4-methylphenyloxy)-2-propenimidate] | 4 (4: 91 to 100%) | 3 (3: 80 to 99%) | 3 (3: 80 to 99%) | 3 (3: 80 to 99%) | 3 (3: 70 to 99%) |  |
| COc1ccccc1OC=C(C)C(=Nc1ccccc1)Oc1ccccc1OC [Compound 235, 2-methoxyphenyl 3-(2-methoxyphenyloxy)-2-methyl-N-phenyl-2-propenimidate] | 4 (4: 91 to 100%) | 3 (3: 80 to 99%) | 3 (3: 80 to 99%) | 3 (3: 80 to 99%) | 3 (3: 70 to 99%) |  |
| CCOc1cccc(OC(=Nc2ccc(OC)cc2)C(C)=COc2ccccc2OC)c1 [Compound 249, 3-ethoxyphenyl N-(4-methoxyphenyl)-3-(2-methoxyphenyloxy)-2-methyl-2-propenimidate] | 4 (4: 91 to 100%) | 3 (3: 80 to 99%) | 3 (3: 80 to 99%) | 3 (3: 80 to 99%) | 3 (3: 70 to 99%) |  |
| COc1ccccc1OC=C(C)C(=Nc1ccc(C)c(C)c1)Oc1cc(C)cc(C)c1 [Compound 256, 3,5-dimethylphenyl N-(3,4-dimethylphenyl)-3-(2-methoxyphenyloxy)-2-methyl-2-propenimidate] | 4 (4: 91 to 100%) | 3 (3: 80 to 99%) | 3 (3: 80 to 99%) | 3 (3: 80 to 99%) | 3 (3: 70 to 99%) |  |
| COc1ccc(OC=C(C)C(=Nc2ccccc2)Oc2cccc(OC)c2)cc1 [Compound 266, 3-methoxyphenyl 3-(4-methoxyphenyloxy)-2-methyl-N-phenyl-2-propenimidate] | 4 (4: 91 to 100%) | 3 (3: 80 to 99%) | 3 (3: 80 to 99%) | 3 (3: 80 to 99%) | 3 (3: 70 to 99%) |  |
